Like-named read-outs stand apart in the source and are kept apart here. Marks after values point to notes of the source that are not given here.

The values below come from publication PMC9934367, “Functional impact of subunit composition and compensation on Drosophila melanogaster nicotinic receptors–targets of neonicotinoids” (PLOS Genetics, 2023).

In series [1] the test system is D. melanogaster nAChRs. The series is described as follows: Lattice analysis of subunit factors determining affinity (ΔpEC50).
Series [2] relates to D. melanogaster nAChRs. Put plainly: Multivariate analysis of factors determining affinity (pEC50) and efficacy (Imax). The note with it: for Coefficients (95% CI), Imax / Coefficients (95% CI), pEC50: multivariate analysis, adjusted model, acetylcholine as reference, 12 nAChRs.
The mark [3] stands for this setting: compound factor, Acetylcholine as Reference, adjusted model using all covariates.

`CN/C(=N\[N+](=O)[O-])NCc1cnc(Cl)s1` [Clothianidin, clothianidin]: the “ΔpEC50, mean (95% confidence interval), lattice analysis” value with D. melanogaster nAChRs [1] (subunit Dα1) is -0.340 (-0.765 − 0.085); in the series on D. melanogaster nAChRs [1] (subunit Dα2), -0.792 (-1.493 − -0.090)*; in the series on D. melanogaster nAChRs [1] (subunit Dα3), 0.648 (-0.348 − 1.643); in the series on D. melanogaster nAChRs [1] (subunit Dβ2), 0.232 (-0.386 − 0.850). Moreover, the “Imax Coefficients (95% CI)” value in the series with D. melanogaster nAChRs [2] (setting [3]) was -0.951 (-1.020 − -0.881)*. Moreover, the “pEC50 Coefficients (95% CI)” value with D. melanogaster nAChRs [2] (setting [3]) is given as 2.229 (1.928 − 2.530)*. For the same molecule, the “Coefficients (95% CI), Imax” value in the series on D. melanogaster nAChRs [2] is -0.951 (-1.020 − -0.881) ^*. Also, the “Coefficients (95% CI), pEC50” value in the series on D. melanogaster nAChRs [2] is reported as 2.229 (1.928 − 2.530) ^*.
As to `O=[N+]([O-])NC1=NCCN1Cc1ccc(Cl)nc1` [Imidacloprid, imidacloprid], in the series with D. melanogaster nAChRs [2], the “pEC50 Coefficients (95% CI)” value was 1.414 (1.113 − 1.715)*; the “Coefficients (95% CI), Imax” value was -0.333 (-0.403 − -0.263) ^*; the “Coefficients (95% CI), pEC50” value is 1.414 (1.113 − 1.715) ^*. Also, the “Imax Coefficients (95% CI)” value in the series with D. melanogaster nAChRs [2] (setting [3]) is on record as -0.333 (-0.403 − -0.263)*.
Consider `N#C/N=C1\SCCN1Cc1ccc(Cl)nc1` [Thiacloprid, thiacloprid], for which the “ΔpEC50, mean (95% confidence interval), lattice analysis” value with D. melanogaster nAChRs [1] (subunit Dα1) is reported as -0.035 (-1.210 − 1.140); in the series on D. melanogaster nAChRs [1] (subunit Dα2), -0.652 (-0.951 − -0.352)*; with D. melanogaster nAChRs [1] (subunit Dα3), 0.328 (-0.201 − 0.856); in the series on D. melanogaster nAChRs [1] (subunit Dβ2) it was 0.218 (-0.389 − 0.826). In addition, the “Imax Coefficients (95% CI)” value in the series with D. melanogaster nAChRs [2] (setting [3]) is reported as -0.881 (-0.951 − -0.811)*. The “pEC50 Coefficients (95% CI)” value with D. melanogaster nAChRs [2] (setting [3]) is on record as 1.785 (1.484 − 2.086)*. In addition, the “Coefficients (95% CI), Imax” value with D. melanogaster nAChRs [2] was -0.881 (-0.951 − -0.811) ^*. In addition, the “Coefficients (95% CI), pEC50” value in the series with D. melanogaster nAChRs [2] was 1.785 (1.484 − 2.086) ^*.
